{"source": "the supplement of paper PMC9549374", "note": "The list shows a part of the results. Cut-off read from the data, not from the text of the source: active = 2-fold of DMSO or more and inactive = the rest. Single values of this set are uncertain. Some low values are a fixed figure set by the source, not a measured ratio.", "data": [{"tested_on": "CM7/1-hgem mouse ES cell-derived cardiomyocytes", "test": "maximal number of mAG-hGem(1/110)-positive cardiomyocytes over 96 h, fold-change vs DMSO; higher = more cardiomyocyte cell cycle activity", "settings": "1 µM; 96 (max over 12 h time points) h", "values": [{"smiles": "COc1ccc(CC(=O)c2ccc(O)cc2O)cc1", "maximal number": "inactive: 1"}, {"smiles": "CC(=O)O[C@H]1CC[C@]2(C)C(C[C@@H](OC(C)=O)[C@]3(C)C4=CC(=O)O[C@H](c5ccoc5)[C@@]4(C)CCC23)C1(C)C", "note": "(stereo partly drawn) [3-DEOXO-3beta-ACETOXYDEOXYDIHYDROGEDUNIN]", "maximal number": "inactive: 1"}, {"smiles": "NC(N)=Nc1nc(CSCC/C(N)=N/S(N)(=O)=O)cs1", "maximal number": "inactive: 1"}, {"smiles": "CC(=O)O[C@@]12CO[C@@H]1C[C@H](O)[C@@]1(C)C(=O)[C@H](O)C3=C(C)[C@@H](OC(=O)[C@H](O)[C@@H](NC(=O)OC(C)(C)C)c4ccccc4)C[C@@](O)([C@@H](OC(=O)c4ccccc4)[C@H]21)C3(C)C", "maximal number": "inactive: 1"}, {"smiles": "COc1ccc(C(C)=O)c(OC)c1", "maximal number": "inactive: 1"}, {"smiles": "CC(=O)Nc1ccc(CC(=O)O)cc1", "maximal number": "inactive: 1"}, {"smiles": "O=C(CCCN1CCN(c2ccccn2)CC1)c1ccc(F)cc1", "maximal number": "inactive: 1"}, {"smiles": "Nc1ccn([C@@H]2O[C@H](CO)[C@@H](O)[C@H]2O)c(=O)n1", "maximal number": "inactive: 1"}, {"smiles": "O=C1NCC2(CCN(CCc3ccccc3)CC2)O1", "maximal number": "inactive: 1"}, {"smiles": "O=C1c2cccc(O)c2C(=O)c2c(O)cccc21", "maximal number": "inactive: 1"}, {"smiles": "Oc1cc(O)c2c(c1)O[C@H](c1ccc(O)c(O)c1)[C@@H](O)C2", "maximal number": "inactive: 1"}, {"smiles": "CCc1ccc2c(O)c3c(cc2c1C(=O)OC)C(=O)c1c(O)ccc(O)c1C3=O", "maximal number": "inactive: 1"}, {"smiles": "COc1cc2cc3c4cc(OC)c(OC)cc4cc[n+]3c(C)c2cc1OC", "maximal number": "inactive: 1"}, {"smiles": "C[C@@H]1O[C@@H](Oc2c(-c3ccc(O)c(O)c3)oc3cc(O)cc(O)c3c2=O)[C@H](O)[C@H](O)[C@H]1O", "maximal number": "active: 3"}, {"smiles": "O=C(O)COC(=O)Cc1ccccc1Nc1c(Cl)cccc1Cl", "maximal number": "inactive: 1"}, {"smiles": "O=C(O)c1cc(O)ccc1O", "maximal number": "inactive: 1"}, {"smiles": "CCOC(=O)N1CCC(=C2c3ccc(Cl)cc3CCc3cccnc32)CC1", "maximal number": "inactive: 1"}, {"smiles": "COC(=O)CC[C@@H](C)[C@H]1CC[C@H]2[C@@H]3[C@H](O)C[C@@H]4C[C@H](O)CC[C@]4(C)[C@H]3C[C@H](O)[C@]12C", "maximal number": "inactive: 1"}, {"smiles": "CC(=O)N(CC(O)CO)c1c(I)c(C(=O)NCCO)c(I)c(C(=O)NCC(O)CO)c1I", "note": "(stereo not drawn)", "maximal number": "inactive: 1"}, {"smiles": "CCCCN1CCCCC1C(=O)Nc1c(C)cccc1C", "note": "(stereo not drawn)", "maximal number": "inactive: 0"}, {"smiles": "COc1ccc(CN2CCN(C(c3ccc(F)cc3)c3ccc(F)cc3)CC2)c(OC)c1OC", "maximal number": "inactive: 0"}, {"smiles": "OCC(O)CN1CCN(c2ccccc2)CC1", "note": "(stereo not drawn)", "maximal number": "inactive: 1"}, {"smiles": "COc1ccc(-c2coc3cc(O)ccc3c2=O)c(OC)c1", "maximal number": "inactive: 1"}, {"smiles": "Cc1cc(O)c(C)c(O)c1C(=O)O", "maximal number": "inactive: 1"}, {"smiles": "COC1=C(OC)C(=O)C(CCCCCCCCCCO)=C(C)C1=O", "maximal number": "active: 3"}, {"smiles": "CC[C@H](/C=C/[C@@H](C)[C@H]1CC[C@H]2[C@@H]3CCC4=CC(=O)CC[C@]4(C)[C@H]3CC[C@]12C)C(C)C", "maximal number": "inactive: 1"}, {"smiles": "C=CCCCCCCCCCCCC(O)CC(O)CO", "note": "(stereo not drawn)", "maximal number": "inactive: 1"}, {"smiles": "COc1ccc2c(c1)OC/C(=C\\c1ccc(OC)c(O)c1)C2=O", "maximal number": "inactive: 1"}, {"smiles": "CC(=O)c1ccc[nH]1", "maximal number": "inactive: 1"}, {"smiles": "CC1=CC2C(C(C)C)CCC(C)(O)C2CC1", "note": "(stereo not drawn)", "maximal number": "inactive: 0"}, {"smiles": "CCCCC(CC)COC(=O)C(C#N)=C(c1ccccc1)c1ccccc1", "note": "(stereo not drawn)", "maximal number": "inactive: 1"}, {"smiles": "COc1ccc2c(c1)OCC(Cc1ccc(O)c(OC)c1)C2=O", "note": "(stereo not drawn)", "maximal number": "inactive: 1"}, {"smiles": "[O-][n+]1cccc(CO)c1", "maximal number": "inactive: 1"}, {"smiles": "CC(C)CCC[C@@H](C)[C@H]1CC[C@H]2[C@@H]3CC=C4CC(=O)CC[C@]4(C)[C@H]3CC[C@]12C", "maximal number": "inactive: 1"}, {"smiles": "O=C(/C=C/c1ccc(O)c(O)c1)OCCc1ccccc1", "maximal number": "inactive: 1"}, {"smiles": "O=c1c(O)c(-c2ccccc2)oc2ccccc12", "maximal number": "inactive: 1"}, {"smiles": "C[C@@H]1CC[C@@]2(OC1)O[C@H]1C[C@H]3[C@@H]4CC[C@@H]5C[C@@H](O)CC[C@]5(C)[C@H]4CC[C@]3(C)[C@H]1[C@@H]2C", "maximal number": "inactive: 1"}, {"smiles": "Cc1cc2nc3ccc(N(C)C)cc3[s+]c2cc1N", "maximal number": "inactive: 1"}]}]}
